Test results taken from the supplement of paper PMC4683952.
Some of the results follow. Cut-off read from the data, not from the text of the source: active = 2 or more and inactive = the rest. This data set is noisy: repeats of one test often differ as much as different tests do.

system: Lgr5 (MarsCy1-Lgr5-EGFP, U2OS); assay: cell-surface Lgr5 expression (SCi1 fluorescence, background-subtracted) relative to WT DMSO (fold of DMSO control); higher = more Lgr5 at the plasma membrane; details: U2OS MarsCy1-Lgr5-EGFP stable; treatment time: overnight; library: ActiProbe-5K (TimTec); 25 µM

Compound | cell-surface Lgr5 expression
O=C(O)c1cc2[nH]c(=O)cc(-c3ccco3)n2n1 | inactive: 1.09
CC(O)CN(N)C1=NS(=O)(=O)c2ccccc21 (stereo not given) | inactive: 1.31
Oc1ccc(Cl)cc1-c1cc(C(F)(F)C(F)F)no1 | inactive: 0.778
CC(=O)C1=C(C(=O)O)SC2=C(CCCC2)N1 | inactive: 1.15
CN(C)S(=O)(=O)N1CCN(C2c3ccccc3-c3ccccc32)CC1 | inactive: 1.08
O=[N+]([O-])c1ccc(/C=N\c2ccc(Br)cc2)s1 | inactive: 1.91
CC(C)(C)c1ccc(-c2nnc(S)n2/N=C/c2ccc(C(F)(F)F)cc2)cc1 | inactive: 0.851
CCCCc1nc2c(sc3nc(C)cc(COC)c32)c(=N)o1 | active: 2.2
COc1ccc(C2NCC(CCl)O2)cc1 (stereo not given) | inactive: 0.952
C=CCC1(O)CC(C)(C)NC(C)(C)C1 | inactive: 0.933
COc1ccc(NC(=O)Nc2cccc(Cl)c2)cc1 | inactive: 0.802
O=Cc1c[nH]c2ccc(Cl)cc12 | inactive: 0.853
[O-][S+](CCSc1nnnn1-c1ccccc1)c1ccccc1 (stereo not given) | inactive: 1.22
Cc1c(N2C(=O)C(C)SC23C(=O)Nc2ccccc23)c(=O)n(-c2ccccc2)n1C (stereo not given) | inactive: 1.38
O=S(=O)(c1ccccc1)N1CC2c3ccccc3CCN2C1c1ccccc1 (stereo not given) | inactive: 1.29
CCO[C@H]1C=C[C@@H](OC(C)=O)[C@H](COC(C)=O)O1 | inactive: 1.08
CC(=C/CCC1(C(N(C(O1)=O)CC([O-])=O)(O)C)C)/C (stereo not given) | inactive: 1.16
O=c1[nH]c2ccc(S(=O)(=O)N3CCCC3)cc2s1 | inactive: 1.16
O=c1ccc2nc3ccc(O)cc3oc-2c1 | inactive: 0.816
O=C1COc2ccc(Cl)cc2O1 | inactive: 1.07
Cc1c(-c2cc(C(F)(F)C(F)F)[nH]n2)c(O)c([N+](=O)[O-])c(C)c1[N+](=O)[O-] | inactive: 0.933
Cc1ccsc1/C=N/Nc1nnc(C)c(=O)[nH]1 | inactive: 1.28
CCc1sc(/C=C(\C#N)C(N)=S)cc1[N+](=O)[O-] | inactive: 1.72
Nc1nnc(SC2CCCC2)s1 | inactive: 1.06
Br.Cc1cc(C)c(-c2csc(=N)[nH]2)c(C)c1 | inactive: 0.949
Cn1c(-c2ccco2)nn([C@H]2CC(=O)[C@@H]3OC[C@H]2O3)c1=S | inactive: 1.03
N=c1c2c3c(sc2ncn1N)CCCC3 | inactive: 1.22

Compound | cell-surface Lgr5 expression
N#Cc1cc2c(nc1SC/C=C/CSc1nc3c(cc1C#N)CCC3)CCC2 | inactive: 1.1
CN1CC(C(=O)NC23CC4CC(CC(C4)C2)C3)CC1=O (stereo not given) | inactive: 1.25
CS(=O)(=O)N1CCN(C(=O)C23CC4CC(CC(C4)C2)C3)CC1 | inactive: 1.24
O=c1oc2ccccc2cc1C1=NOC(c2ccc3c(c2)OCO3)C1 (stereo not given) | inactive: 1.26
C=CCNc1sc(C(=O)C23CC4CC(CC(C4)C2)C3)c(N)c1C#N | inactive: 1.53
CC12CCC(=O)N1CCCCN2 (stereo not given) | inactive: 1.17
O=C(CCC(=O)N/N=C/c1ccc([N+](=O)[O-])s1)N/N=C\c1ccc([N+](=O)[O-])s1 | inactive: 0.98
CCCCSc1nnc(C2CCN(C(=O)OC(C)(C)C)CC2)o1 | inactive: 0.921
CC1(C)CC2(CC(C)(C)NC(=O)N2)NC(=O)N1 | inactive: 0.956
C=CCn1c(-c2ccccc2Cl)nn(C2CCC3OCC2O3)c1=S (stereo not given) | inactive: 0.664
c1ccc(Nc2nc3nonc3nc2Nc2ccccc2)cc1 | inactive: 0.782
COc1ccc(/N=C\c2cccn2-c2ccc(Br)cc2)cn1 | inactive: 0.905
Nc1ccc(N2CCOCC2)c2nonc12 | inactive: 1.4
CCOC(=O)C1=C(C)NC(=O)NC1c1cc(C)sc1C (stereo not given) | inactive: 1.13
O=C1c2ccccc2S(=O)(=O)N1c1c(F)c(F)nc(F)c1F | inactive: 0.974
O=C(CC(=O)C(F)(F)F)c1ccc(Cl)s1 | inactive: 1.16
C1(/C(c2ccccc2C1=O)=O)=C/c1c[nH]c2c1cccc2 | inactive: 1.35
NC(=S)N/N=C\c1cc(Cl)cc(Cl)c1O | inactive: 0.644
COc1cc(-c2nnc(C34CC5CC(C3)CC(n3cnc(Cl)n3)(C5)C4)o2)ccc1OC(F)F | inactive: 0.846
Cn1c(N)c(C(N)=O)sc1=S | inactive: 0.775
Clc1ccc(-c2nnc3cccc(Cl)n23)cc1 | inactive: 1.28
C1CCN(SN2CCCCC2)CC1 | inactive: 1.51
O=C1NC(=O)N2CCCC12 (stereo not given) | inactive: 1.33
O=C(CCC(=O)Nc1nccs1)Nc1nccs1 | inactive: 1.23
CN1CCC(C2COC2(c2ccccc2)c2ccccc2)CC1 (stereo not given) | inactive: 1.24
O=S(=O)(N1CCOCC1)N1CCN(CC(O)COc2ccc3c(c2)CCC3)CC1 (stereo not given) | inactive: 1.02
Cc1ccc(/C=C2/C=CC(=O)O2)o1 | inactive: 1.41

Compound | cell-surface Lgr5 expression
Cc1cc(NC(=O)NC(C)(C)C)no1 | inactive: 1.15
CC(C)c1ccc2c(c1)c1c3n2CCN=C3CCC1.Cl | inactive: 1.14
O=S(=O)(Nc1ccc(Cl)cc1)c1ccc(NS(=O)(=O)c2ccc3c(c2)OCCO3)cc1 | inactive: 0.805
NC(=O)c1c(C(=O)O)no[n+]1[O-] | inactive: 1.18
O=[N+]([O-])c1ccc2c(c1)oc1ccc(S(=O)(=O)N3CCCC3)cc12 | inactive: 1.62
COc1c(N)cc(-c2nnn[nH]2)cc1N | inactive: 1.11
CCn1cc(-c2cc[nH]n2)cn1 | inactive: 1.02
O=c1cc(O)c2sc(SCCN3CCCC3)nc2[nH]1 | inactive: 1.22
Nn1c(CCC(=O)O)nc2sc3c(c2c1=O)CCCC3 | inactive: 1.1
O=C([O-])C1=C/C(=C(/c2ccccc2)c2cc(C(=O)[O-])c(O)c3ccccc23)c2ccccc2C1=O | inactive: 1.4
NCCSc1[nH]ncc1[N+](=O)[O-] | inactive: 1.19
O=S(=O)(c1ccc(F)cc1)N1CCCCCC1 | inactive: 1.32
CCCC[n+]1c(C)sc2ccccc21 | inactive: 1.26
N#CC1=C(N)n2c(nc3ccccc32)C(C#N)C12CCCC2 (stereo not given) | inactive: 1.05
CC(C)[C@@H]1CC[C@@H](C)C[C@@H]1OC(=O)C(O)C(O)C(=O)O[C@H]1C[C@H](C)CC[C@H]1C(C)C (stereo not given in full) | inactive: 1.3
C(=N/c1ccc(/N=N/c2ccccc2)cc1)/c1ccc2ccccc2c1 | inactive: 0.755
COCCOC(=O)/C(C#N)=C\c1ccoc1 | inactive: 1.12
CC(C)n1nnc(CC(=O)O)n1 | inactive: 1.19
O=[N+]([O-])c1ccc(N2CCOCC2)c(S(=O)(=O)N2CCOCC2)c1 | inactive: 1.06
FC(F)(F)c1ccc(/C=N/n2c(S)nnc2-c2ccncc2)cc1 | inactive: 1.04
COCc1cc(=O)n2nc(NC(C)=O)[nH]c2n1 | inactive: 1.32
CC(C)N1CCC2(CC1)C(C#N)=C(O)NC1=C2C(=O)CC(C)(C)C1 | inactive: 1.33
O=S(=O)(c1ccc(Br)cc1)N1CCCc2ccccc21 | inactive: 1.2
CC(=O)C1=C(C)OC(N)=C(C#N)C1c1ccco1 (stereo not given) | inactive: 1.08
Fc1cc(F)c(F)c(OCc2nc(-c3cccs3)no2)c1F | inactive: 1.17
CC(C)c1nnc(N)s1 | inactive: 1.24
Cn1cc(-c2cc(C(F)(F)F)c3c(C4CC4)nn(C)c3n2)cn1 | inactive: 1.05

Shown as labelled records: four of the compounds above
COc1c(N)cc(-c2nnn[nH]2)cc1N
  cell-surface Lgr5 expression: inactive: 1.11
CCn1cc(-c2cc[nH]n2)cn1
  cell-surface Lgr5 expression: inactive: 1.02
O=c1cc(O)c2sc(SCCN3CCCC3)nc2[nH]1
  cell-surface Lgr5 expression: inactive: 1.22
Nn1c(CCC(=O)O)nc2sc3c(c2c1=O)CCCC3
  cell-surface Lgr5 expression: inactive: 1.1

(cont.)

Compound | cell-surface Lgr5 expression
NC(=O)CSc1nnc(SCC(N)=O)s1 | inactive: 1.03
N#Cc1cc2c(nc1SC(CCC1CC1)c1ccccc1)CCC2 (stereo not given) | inactive: 0.966
CCCCCOC(=O)CSc1n[nH]c(=O)[nH]c1=O | inactive: 1.28
C=CCC1C=CCC(CC=C)N1C(=O)CCC(=O)O (stereo not given) | inactive: 1.26
COc1nc(N2CCOCC2)nc(-n2cccc2)n1 | inactive: 1.23
O=C(O)C1OC(C(=O)O)C(C(=O)O)C1C(=O)O (stereo not given) | inactive: 1.13
O=[N+]([O-])c1ccc(OS(=O)(=O)c2ccc3ccccc3c2)c2ncccc12 | inactive: 1.36
O=C(O)CCCCCCCCCCC1CCCCC1=O (stereo not given) | inactive: 1.38
C/C=C/CSc1nc2nc(C)cc(C)n2n1 | inactive: 1.18
O=C(CCn1nc(C(F)(F)F)c(Cl)c1C1CC1)Nc1nccs1 | inactive: 1.37
C=CCSc1sc2c(O)nc(=O)[nH]c2c1C#N | inactive: 1.1
Cn1c(=S)n(CCSc2nc3ccccc3n2-c2ccccc2)c2ccccc21 | inactive: 1.86
CCOC(=O)c1c(O)c(Cl)c(C)[nH]c1=O | inactive: 1.27
Cn1c(=O)c2c(ncn2CCC#N)n(C)c1=O | inactive: 1.13
O=S(=O)(NC1CCCC1)c1ccc(Br)cc1 | inactive: 1.32
O=C(CSc1nc2[nH]c(=O)cc(O)c2s1)Nc1nccs1 | inactive: 1.14
CCCCNC(=S)N1CCOCC1 | inactive: 1.38
CC(C)=CC/C=C1\CCC2C(=O)NC(=O)C2C1 (stereo not given) | inactive: 1.4
O=S(=O)(c1ccc(Cl)cc1)N1CCc2ccccc21 | inactive: 1.26
CCC1(C)Cc2c(c(=S)n(C)c3ncnc(N)c23)CO1 (stereo not given) | inactive: 0.533
N#CC1=C(S)NC(=O)C(C#N)C12CCCCC2 (stereo not given) | inactive: 1.33
c1cnc2c(OCc3nc4ccccc4[nH]3)cccc2c1 | inactive: 1.19
COc1ccc2c(c1)Nc1ccccc1S2 | inactive: 1.2
Nc1c(Cl)cc([N+](=O)[O-])cc1Br | inactive: 1.25
